# Data as given in PubChem BioAssay AID1273 (Columbia University Molecular Screening Center, 2008).
# Some of the results follow.
# Assay: inhibitors of insulin promoter-driven GFP, primary screen, imaging, TRM-6 cells (human fetal islet line), eGFP reporter, cell count (AID 1273;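 also: cells exposed to compound for 48 h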)
# Conditions: measured here: cell count, toxicity, at 2 µM, reporter expression induced with tamoxifen
row,SMILES,normalized cell count
1,CCOc1ncccc1C(=O)NCC1(N2CCOCC2)CCCCC1,111%
2,CC(C)(C)OC(=O)N1CCC(Nc2ccccc2)CC1,78.7%
3,CCC(CO)(C(=O)OC1CN2CCC1CC2)c1ccccc1 (centres undefined),124%
4,CCN1CCC(Nc2cccc(F)c2)CC1,90.3%
5,CN(C)c1ccc(C(=O)NCC2(N3CCCCC3)CCCCC2)cc1,77.5%
6,N#Cc1ccc(C(=O)NCC2(N3CCCCC3)CCCCC2)cc1,119%
7,c1ccc(CN2CCC(Nc3ccccc3)CC2)cc1,84.5%
8,COc1ccc(C(=O)NCC2(N3CCOCC3)CCCCC2)cc1OC,137%
9,N/C(=N\O)c1c(N)no[n+]1[O-],67.8%
10,O=C(OC1CN2CCC1CC2)C1c2ccccc2C=Cc2ccccc21 (centres undefined),111%
11,COc1ccc(CN(CCCl)CCCl)cc1Cl,88.1%
12,CC(C)c1ccc(NC2CCN(C(=O)OC(C)(C)C)CC2)cc1,94.9%
13,CN1CCC(Nc2cccc(F)c2)CC1,69.3%
14,CN1CCN(CCOC(=O)C(O)(c2ccccc2)c2ccccc2)CC1,215%
15,COc1ccc(NC2CCN(C(=O)OC(C)(C)C)CC2)cc1,32.6%
16,O=C(NCC1(N2CCOCC2)CCCCC1)c1cc(=O)[nH]c2ccccc12,115%
17,COc1ccc(C(=O)NCC2(N3CCCCC3)CCCCC2)c(OC)c1OC,106%
18,O=C(NCC1(N2CCOCC2)CCCCC1)c1cc2ccccc2o1,71.9%
19,O=C(OC1CN2CCC1CC2)C1c2ccccc2Oc2ccccc21 (centres undefined),104%
